# Assay results from PubChem BioAssay AID2685 (National Center for Advancing Translational Sciences (NCATS), 2010).
# Several values for one entry are separate records, joined by “and”; a condition that tells them apart may be missing. Equal entries are not always repeated. The list shows a part of the results. These are further read-outs of the screen, such as a control signal, another cell line or another target. No call is given for them. Most of these compounds were active or inconclusive in the main read-out, so they are no random draw. Potencies come from curve fits of mixed quality, noted in brackets.
# Experiment: qHTS Assay for Lipid Storage Modulators in Drosophila S3 Cells;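 as to cell number change: cells counted by Cell Tracker Red CMTPX staining in the red channel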
# Conditions: BODIPY lipid droplet fluorescence, 18-24 h; for cell number change: measured here: cell count max response, cells fed with added oleic acid
# In short: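 Drosophila S3 cells got compounds at several concentrations plus oleic acid (400 uM solution). Laser-scanning cytometry with 488 nm excitation read lipid droplets at 500-530 nm and cells at 575-640 nm. Percent activity was relative to 20 uM Triacsin C.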
# [1] = measured here: lipid fluorescence (Fed channel) AC50, cells fed with added oleic acid
# [2] = measured here: cell number channel AC50, cells fed with added oleic acid
Structure (SMILES),cell number change,AC50 [1],AC50 [2]
CCOc1cccc(OCC)c2c(C)[n+](CC3CCCO3)c(C)c1-2 (centres undefined),8.75%,"23.1 µM [falling, partial curve]",
COc1cccc(N2CCN(S(=O)(=O)c3ccc4c(c3)oc(=O)n4C)CC2)c1,,,"29.1 µM [rising, single point]"
CCc1ccc(NP(=O)(Oc2ccccc2F)Oc2ccccc2F)cc1,-4.04%,"6.51 µM [rising, single point]",
Cc1cccc(NC(=O)N2CC3CC(C2)c2cccc(=O)n2C3)c1 (centres undefined),-0.289%,,
COC(=O)C1=C(c2cccc(C#N)c2)C[C@@H]2CC[C@H]1N2C(=O)NCCOc1ccc(OC)cc1,-32.3%,"9.2 µM [falling, partial curve, poor fit]","6.51 µM [falling, partial curve]"
CN(C)c1ccc(-[n+]2c(-c3ccccc3)cc(-c3ccccc3)cc2-c2ccccc2)cc1,-9.19%,"1.16 µM [falling, partial curve]",
CC(=O)c1ccc2c(c1)C1C(Cl)C(Sc3ccccc3[N+](=O)[O-])CC1C(C(=O)O)N2 (centres undefined),25.8%,,
COC(=O)C1=C(c2ccc(Cl)c(C(F)(F)F)c2)C[C@@H]2CC[C@H]1N2C(=O)N1CCC(C)CC1,-52.8%,"0.82 µM [rising, single point]","18.4 µM [falling, single point]"
COC(=O)CN1C(=O)CN=C(c2ccccc2Cl)c2cc(Br)ccc21,22.3%,"0.116 µM [rising, full curve, poor fit]","0.291 µM [rising, full curve, poor fit]"
CNP1(NC)=Nc2nn(-c3ccccc3)c(N)c2C(c2ccccc2)=N1,15.4%,"20.6 µM [rising, single point]","0.291 µM [rising, full curve, poor fit]"
CN1CCC2(CC1)C(C#N)=C(N)NC(S)=C2C#N,-39.6% and 15.4%,"16.4 µM [falling, partial curve]","18.4 µM [falling, partial curve]"
CNCCc1c(C)n[nH]c1C,4.05%,,
CC12CN3CCN(CC(C3)C1O)C2 (centres undefined),,"6.51 µM [rising, single point]",
Nc1ccncc1Cl,-34.7%,,"20.6 µM [falling, single point]"
[O-][n+]1onc2c1CCC1N(O)CCC21O (centres undefined),-9.13%,"2.91 µM [falling, full curve]",
CCC(C)n1c(C)cc(C(N)=O)c1C (centres undefined),-1.49%,,
Cc1ccc(C(C)C)c(OCC#CCN2CCCC2)c1,-15.6%,,
Cc1ccc(NP(=O)(Nc2ccc(C)cc2)Oc2ccccc2)cc1,33%,"29.1 µM [rising, single point]","32.6 µM [rising, single point]"
CC12CC[C@H]3[C@@H](CCC4(O)C[C@H](O)CCC34/C=N/NC(=O)c3ccccc3O)C1(O)CCC2C1=CC(=O)OC1 (some centres undefined),-9.38%,"0.651 µM [falling, full curve, poor fit]",
OCC(Br)CBr (centres undefined),11.3%,"0.731 µM [falling, single point]",
COc1cc(C)cc2oc(=O)c(CC(=O)N3C[C@H]4C[C@@H](C3)c3cccc(=O)n3C4)c(C)c12,15.5%,,

# Reformatted with tabs: 2 of the compounds above
Structure (SMILES)	cell number change	AC50 [1]	AC50 [2]
[O-][n+]1onc2c1CCC1N(O)CCC21O (centres undefined)	-9.13%	2.91 µM [falling, full curve]	
CCC(C)n1c(C)cc(C(N)=O)c1C (centres undefined)	-1.49%		

# 2 of the compounds above, with bars between the fields:
Structure (SMILES) | cell number change | AC50 [1] | AC50 [2]
OCC(Br)CBr (centres undefined) | 11.3% | 0.731 µM [falling, single point] | 
COc1cc(C)cc2oc(=O)c(CC(=O)N3C[C@H]4C[C@@H](C3)c3cccc(=O)n3C4)c(C)c12 | 15.5% |  | 

# Additional records follow.

Structure (SMILES),cell number change,AC50 [1],AC50 [2]
O=[N+]([O-])/C=C1\NCCN1Cc1ccc(Cl)nc1,1.52%,"23.1 µM [falling, single point]",
COC(=O)C1=C(c2ccc3ccccc3c2)C[C@@H]2CC[C@H]1N2C(=O)N1CCCC1,-47.9%,"29.1 µM [falling, single point]","29.1 µM [falling, single point]"
CN1c2ccc([N+](=O)[O-])cc2CC2(C(=O)NC(=O)NC2=O)C1c1ccccc1 (centres undefined),-27.4%,,
O=C1NC2NC(=O)N([N+](=O)[O-])C2N1 (centres undefined),-1.75%,"0.58 µM [falling, single point]",
CC(=NCCC1=CCCCC1)c1c(O)n(C)c(=O)n(C)c1=O,11%,"3.26 µM [rising, full curve, poor fit]",
O=[N+]([O-])c1ccc(N2CCNCC2)cc1N1CCCCCC1,18.2%,,
CC[N+]1(C)CCCC(OC(=O)C(O)(c2ccccc2)c2ccccc2)C1 (centres undefined),-3.71%,"0.116 µM [rising, full curve, poor fit]",
COCCn1c(O)c(/C=N/NC(=O)CSC(=S)N2CCCC2)c(=O)[nH]c1=S,-8.77%,"3.26 µM [rising, partial curve]",
COC(=O)C1=C(c2ccc(F)cc2OCc2ccccc2)C[C@@H]2CC[C@H]1N2C(=O)NCc1ccc2[nH]ccc2c1,-43.6%,"8.2 µM [falling, single point]","29.1 µM [falling, single point]"
C#CCN1CCN(c2ccc(F)cc2)CC1,3.69%,"20.6 µM [falling, single point]",
CN1CCN(c2cn[nH]c(=O)c2Cl)CC1,-9.02%,,
COc1ccccc1-n1c(-c2ccccc2)nc2ccccc2c1=O,-3.56%,,
CCN1CCN(CC(=O)c2c(C)n(Cc3ccccc3)c3ccc(OC)cc23)CC1,36.9%,,"2.06 µM [rising, full curve, poor fit]"
Cc1nc2ccc(N3CCN(C)CC3)cc2nc1C,,,"0.0058 µM [falling, full curve, poor fit]"
Oc1c(Br)cc(Br)cc1Oc1ccc(Br)cc1Br,-43.3%,"25.9 µM [falling, single point]","3.66 µM [falling, partial curve]"
C=CCn1c(O)c(/C(C)=N/N2CCCCCC2)c(=O)[nH]c1=O,37.9%,"20.6 µM [rising, single point]","20.6 µM [rising, single point]"
Cc1cc(C)n(CCOC(=O)C2C(C=C(Cl)Cl)C2(C)C)n1 (centres undefined),-19.6%,"0.058 µM [rising, full curve, poor fit]",
Cc1ccc(C)c(CN2CCC(n3nnc4cc(F)ccc43)CC2)c1,-18.8%,"2.06 µM [falling, full curve]",
Cc1cccc(NC(=O)N2CCCC2)c1,7.32%,"4.61 µM [falling, single point]","2.31 µM [falling, partial curve, poor fit]"
CCOS(C)(=O)=O,-20.3%,"20.6 µM [rising, partial curve, poor fit]",
COc1ccc(N=Cc2c(O)n(Cc3ccccc3)c(=S)[nH]c2=O)c(OC)c1,-5.19%,,

Structure (SMILES),cell number change,AC50 [1],AC50 [2]
Cc1cccc(N=Cc2c(O)n(-c3ccccc3C)c(=O)[nH]c2=O)c1,131%,,"18.4 µM [rising, single point]"
COc1cc(-c2ccc(N)c(OC)c2)ccc1N,6.14%,"0.0731 µM [rising, full curve, poor fit]",
CCCCn1c(N)c(C(=O)OCC2CCCO2)c2nc3ccccc3nc21 (centres undefined),-14.9%,"0.0517 µM [rising, full curve, poor fit]",
O=C(COc1ccc(Cl)cc1)N1CCN(C2CCCC2)CC1,-14.1%,,
CCCCCCCCN=Cc1c(O)[nH]c(=O)[nH]c1=O,,"1.16 µM [falling, full curve]","0.00651 µM [falling, full curve, poor fit]"
C1CCCN(C2CCNCC2)CC1,11.4%,"29.1 µM [rising, single point]",
COc1ccc(-n2c(O)c(/C(C)=N/N3CCCCCC3)c(=O)[nH]c2=O)cc1,14.7%,"0.00461 µM [rising, full curve, poor fit]",
CCc1c(C)nc(N)nc1N1N=C1SCC(=O)OC,16.3%,"6.51 µM [falling, single point]",
COc1ccc(C2SCC(=O)Nc3c2c(=O)[nH]n3C2CCCCC2)cc1 (centres undefined),-6.03%,"6.51 µM [falling, single point]",
CN1C2CCC1CC(OC(=O)c1ccc([N+](=O)[O-])cc1)C2 (centres undefined),,"0.326 µM [falling, full curve]",
CN1CCN(C(=O)Cc2nc3ccccc3[nH]2)CC1,3.16%,"29.1 µM [falling, single point]",
CCN1CCN(C(=O)Cc2c(C)n(C(=O)c3ccc(Cl)cc3)c3ccc(OC)cc23)CC1,49.7%,"4.11 µM [rising, single point]",
CC(=O)N1CCC2(CC1)CC(=O)c1cc(OCC(=O)N3CCN(C)CC3)ccc1O2,42.3%,"29.1 µM [rising, partial curve]",
Nc1ccc(C2(c3ccc(N)cc3)CCCCC2)cc1,84.3%,,"18.4 µM [rising, single point]"
COC(=O)C1=C(c2c(C)noc2C)C[C@@H]2CC[C@H]1N2C(=O)NCc1ccco1,-16.2%,"1.84 µM [falling, partial curve]",
O=C(Nc1ccccc1Cl)Oc1ccc(Cl)cc1Cl,,,"20.6 µM [falling, single point]"
CCCC(=O)N(C)C1=Nc2ccc(Cl)cc2C(c2ccccc2)=[N+]([O-])C1,14.6%,"5.8 µM [rising, partial curve]",
Cc1[nH]c2ccc(OC(F)(F)F)cc2c1CCNCc1cccc([N+](=O)[O-])c1,-18.9%,"29.1 µM [falling, single point]",
CCCCOC(=O)C1=C(N)OC2=C(C(=O)CCC2)[C@]12C(=O)Nc1ccccc12,-18.8%,"3.26 µM [falling, full curve]","7.31 µM [falling, partial curve]"
CCOC(=O)c1c(C)n(CCN2CCN(C)CC2)c2ccc(OC)cc12,11.8%,"2.91 µM [rising, partial curve]",
